In article PMC6278354, “Investigation of New Orexin 2 Receptor Modulators Using In Silico and In Vitro Methods” (Molecules, 2018):

Experiment: PAMPA assay for prediction of BBB penetration (polar brain lipid)

## NS(=O)(=O)c1cc(C(=O)O)c(NCc2ccco2)cc1Cl [Furosemide, reference compound]
PAMPA, pH 7.4
  Papp at 30 µM: 0.2 ± 0.07 ×10⁻⁶ cm/s
Class from PAMPA Pe
  CNS Predicted Availability: CNS − (CNS − (low BBB permeation predicted): Pe (×10^−6 cm s^−1) < 2.0)
